# Measured values as given in PubChem BioAssay AID493014 (National Center for Advancing Translational Sciences (NCATS), 2011).
# The whole screen tested about 340,000 compounds, of which about 170 (0.05%) were called active. The inconclusive results got no clear call from the source; some entries with a clear call stand among them for comparison. Calls follow the shape of the dose curve; as a rule, active = well fitted inhibition curve with a large enough effect in the signal ratio, with a control signal flat (not every such curve was filed as active); inconclusive = small, poorly fitted or top-dose-only effect, or effect the other way, or a change in a side signal; inactive = flat fitted curve, though single readings scatter; the % refers to the signal ratio. Where the call is inconclusive, the potency comes from a doubtful curve fit.
# Experiment: qHTS Assay to Find Inhibitors of Chronic Active B-Cell Receptor Signaling;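 as to activity change, negative = inhibition: plate controls were basal doxycycline-induced cells for no effect and cells given 10 µM MG132 for full effect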
# Conditions: ABC-DLBCL IkBa-CBG/CBR reporter, luminescence ratio (green luciferase fused to IkBa over red control in TMD8 lymphoma cells), 4 h; activity change, negative = inhibition: at 46.1 µM (top of the series)
# How it was run: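 Cell line TMD8 (human ABC DLBCL), stably expressing tet-inducible CBG68-IkBa fusion and CBR; IMDM/0.5% FBS; cpd up to 46 uM; dox induction, 4 h, 37C/5% CO2; dual luminescence; green/red ratio; MG132 control.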
# Potency is read from the fitted curve at half-maximal effect.
Structure (SMILES),Potency,"activity change, negative = inhibition"
Cc1cccc(NC(=S)N/N=C(\c2ccccc2)C(C)C)c1,"inconclusive: 10 µM [rising, partial curve]",–
COc1ccc(Cn2c(C3CCCCC3)nc3c(c(=O)c4ccccc4n3C)c2=O)cc1,–,inconclusive: 15.1%
COC(=O)c1cccc(NC(=O)c2ccc(OC)c(Cl)c2)c1,"inconclusive: 28.2 µM [falling, single point]",–
CC(NC(=O)COC(=O)c1ccccc1O)C1CC2CCC1C2 (stereo not drawn),"inconclusive: 8.2 µM [falling, single point]",–
COc1ccc(C(=O)Nc2ccc3c(c2)N(C)C(=O)c2ccccc2S3)cc1OC,–,inactive
COc1cccc(NC(=O)CSc2nnc(NC(=O)NC3CCCCC3)s2)c1,–,inactive
Cc1ccc(NC(=O)C2=C(O)CCn3c2nc2ccccc23)cc1,"inconclusive: 18.4 µM [falling, partial curve]",–
Cc1cc(C)c(C#N)c(SCC(=O)c2cccs2)n1,"inconclusive: 14.6 µM [falling, single point]",–
COC(=O)c1ccccc1NC(=S)N(Cc1ccc2c(c1)OCO2)Cc1cc2ccc(C)cc2[nH]c1=O,–,inactive
CC(C)(C)CC(C)(C)NC1=CC(=O)OC12CCCCC2,–,inconclusive: 10.2%
COc1cc2c(c3oc(=O)cc(CC(=O)O)c13)CCC(C)(C)O2,–,inconclusive: 2.36%
COc1cccc(/C=N/NC(=O)CCn2cnc3ccccc32)c1,–,inactive
COc1c(O)cc2c(c1O)[C@@H]1O[C@H](CO)[C@@H](O)[C@H](O)C1OC2=O (stereo partly drawn),–,inconclusive: 11.5%
CC(=O)C1=C(O)CC(c2ccccc2)CC1=NCCc1ccccc1 (stereo not drawn),–,inconclusive: 14.4%
CCCCS(=O)(=O)N1CCCC(C(=O)Nc2ccc3c(c2)CCC3)C1 (stereo not drawn),–,inconclusive: 5.91%
O=S1(=O)N=C(Nc2ccc(N3CCOCC3)c(Cl)c2)c2ccccc21,–,inconclusive: 3.15%
Cc1ccc2c(c1)N(S(=O)(=O)c1cc(-c3cc(C)no3)ccc1C)CCO2,"inconclusive: 4.47 µM [rising, full curve, poor fit]",–
COc1ccccc1NS(=O)(=O)c1cc(NC(=S)NCCN2CCOCC2)ccc1N1CCOCC1,–,inactive
CCN1C(=O)N/C(=C/c2cc(C)n(Cc3ccccc3)c2C)C1=O,–,inactive
O=C(COC(=O)Cc1ccc(-c2ccccc2)cc1)NCc1ccc(F)cc1,–,inconclusive: -8.51%
Cc1cc(SCCOc2ccccc2)nc(N)n1,–,inconclusive: -4.81%

# Another view of five compounds above.
Structure (SMILES) | Potency | activity change, negative = inhibition
COc1c(O)cc2c(c1O)[C@@H]1O[C@H](CO)[C@@H](O)[C@H](O)C1OC2=O (stereo partly drawn) | – | inconclusive: 11.5%
CC(=O)C1=C(O)CC(c2ccccc2)CC1=NCCc1ccccc1 (stereo not drawn) | – | inconclusive: 14.4%
CCCCS(=O)(=O)N1CCCC(C(=O)Nc2ccc3c(c2)CCC3)C1 (stereo not drawn) | – | inconclusive: 5.91%
O=S1(=O)N=C(Nc2ccc(N3CCOCC3)c(Cl)c2)c2ccccc21 | – | inconclusive: 3.15%
Cc1ccc2c(c1)N(S(=O)(=O)c1cc(-c3cc(C)no3)ccc1C)CCO2 | inconclusive: 4.47 µM [rising, full curve, poor fit] | –

# (next part)

Structure (SMILES),Potency,"activity change, negative = inhibition"
CCN(CC)C1=N/C(=C\c2ccc(OC)cc2)C(=O)N1c1ccccc1,–,inactive
C[C@]12c3[nH]c4cc(-c5ccco5)ccc4c3CCN1C(=O)[C@@H](CC(=O)NCCN1CCOCC1)C[C@@H]2C(=O)N1CCOCC1,–,inconclusive: 6.3%
COCCn1nnnc1CN(CCCN1CCOCC1)Cc1cc2c(C)ccc(C)c2[nH]c1=O,–,inconclusive: 4.31%
CCCOC(=O)c1ccc(O)c(OC)c1,–,inconclusive: -1.05%
O=C(CS(=O)(=O)c1ccccc1)N1CCCCC1,–,inconclusive: 4.28%
Cc1cc(C(=O)COC(=O)c2cccnc2Cl)c(C)n1C,–,inactive
CCOc1c(C(N)=O)c(-c2ccccc2)c2c(=O)[nH]c3ccccc3n12,–,inconclusive: -11.3%
O=C(Nc1cccc2ccccc12)C12CC3CC(C1)CC(n1cnc([N+](=O)[O-])n1)(C3)C2,"inconclusive: 5.8 µM [falling, partial curve, poor fit]",–
CCCC(=O)Nc1ccc(S(=O)(=O)N2CCCC2)cc1,–,inactive
CCOC(=O)c1sc(NC(=O)Nc2ccc(Cl)cc2)cc1C,–,inconclusive: -0.121%
CCc1c(C(=O)N/N=C/c2ccco2)nnn1-c1nonc1N,–,inconclusive: -8.17%
COc1ccc2c(c1)O[C@H](c1ccc3c(c1)OCO3)[C@@H](OC(=O)N[C@H](C)C1CCCCC1)C2=O,–,inconclusive: 7.27%
CNC(=O)c1cc(Nc2nnc(C)c3ccccc23)ccc1OC,"inconclusive: 11.6 µM [falling, partial curve, poor fit]",–
CCCCC(=O)Nc1sc2c(c1C(N)=O)CCC2,–,inconclusive: -21.4%
COc1ccc(NC(=O)COC(=O)C2CCN(S(=O)(=O)c3ccccc3)CC2)cc1Cl,–,inactive
CC1(C)Cc2c(sc3nc(-c4cc5ccccc5o4)n(N)c(=O)c23)CO1,"inconclusive: 29.1 µM [falling, partial curve, poor fit]",–
O=C(c1ccc2nc(-c3ccco3)c(-c3ccco3)nc2c1)N1CCN(c2ncccn2)CC1,–,inconclusive: 20.3%
Nc1c(S(=O)(=O)c2ccccc2)c2nc3ccccc3nc2n1Cc1ccco1,–,inconclusive: -1.31%
CCOC(=O)c1c(NC(=O)C2C3C=CC(CC3)C2C(=O)O)sc(C)c1CC (stereo not drawn),–,inactive
Cc1sc(NC(=O)c2ccco2)c(CN2CCN(c3ccccc3)CC2)c1C,–,inactive
c1cncc(CNC2CCCc3ccccc32)c1 (stereo not drawn),–,inactive

Structure (SMILES),Potency,"activity change, negative = inhibition"
CC(C)CC(=O)N1CCN(S(=O)(=O)c2ccc(F)cc2)CC1,–,inconclusive: 5.81%
Cn1c(=O)c2c(-c3ccccc3)n(-c3ccccc3O)cc2n(C)c1=O,–,inconclusive: -5.38%
CCC(C)c1ccccc1NC(=O)COC(=O)c1ccc2[nH]c3c(c2c1)CCCC3 (stereo not drawn),–,inconclusive: -3.75%
Cn1ncc(Br)c1NC(=O)c1cc(Cl)cc(Cl)c1,–,inactive
CCOC(=O)C1CCN(Cc2ccc(C(=O)OC)cc2)CC1,–,inactive
CC1CC(=O)c2c(cc3c(-c4c(O)cc(O)c5c(O)c6c(cc45)OC(C)CC6=O)c(O)cc(O)c3c2O)O1 (stereo not drawn),"inconclusive: 15.8 µM [rising, single point]",–
CCOC(=O)C1CCC(CN(Cc2ccc(OC)cc2)S(=O)(=O)c2ccc(F)c(C(=O)Nc3cc(Cl)ccc3OC)c2)CC1 (stereo not drawn),–,inactive
COc1ccc(Nc2cc(C)c3cc([N+](=O)[O-])ccc3n2)cc1,–,inconclusive: -1.24%
CN1CCN(c2nc(-c3ccccc3)nc(-c3ccc(F)cc3)c2C#N)CC1,–,inconclusive: 0.86%
COc1ccc(CN2C(=O)CSC2c2ccncc2)cc1 (stereo not drawn),–,inconclusive: 14.9%
COc1ccc(-c2ccc(-c3cc(=O)oc4cc(OC)c(OC)c(OC)c34)cc2)cc1F,–,inconclusive: 9.12%
CCCCCCn1c(N2CCN(c3ccccc3)CC2)nc2c1c(=O)n(C)c(=O)n2C,–,inactive
Cc1ccc(CN2CC(C(=O)NCCC3=CCCCC3)CC2=O)cc1 (stereo not drawn),–,inactive
COc1ccccc1NC(=O)NCC1CC1(Cl)Cl (stereo not drawn),–,inconclusive: 23%
O=C(O)C(=O)Nc1nc(-c2ccc3c(c2)OCCO3)cs1,–,inactive
CCOC(=O)c1c(C)[nH]c(C(=O)CN2C(=O)NC(C)(c3ccc4ccccc4c3)C2=O)c1C (stereo not drawn),"inconclusive: 5.01 µM [rising, partial curve, poor fit]",–
COc1ccc(S(=O)(=O)N2CCCC(C(=O)N3CCCCCC3)C2)cc1 (stereo not drawn),–,inconclusive: 2.89%
O=C(Nc1scc(-c2ccc(F)cc2)c1C(=O)O)c1ccco1,"inconclusive: 29.1 µM [falling, single point]",–
CCOC(=O)C1(Cc2ccccc2)CCN(Cc2cc(OC)c3c(c2)OCO3)CC1,–,inactive
Cc1ccc(S(=O)(=O)Cc2ccc(C(=O)OCc3ccccc3)cc2)cc1,–,inconclusive: 23.1%
CCCNC(=O)c1ccccc1NC(=O)c1cccc(-n2cnnn2)c1,–,inactive

Structure (SMILES),Potency,"activity change, negative = inhibition"
COc1ccccc1CNC(=O)CCNC(=O)Cn1ccc2ccccc2c1=O,–,inconclusive: -9.12%
COc1ccc(-c2nc3sc(CCNC(=O)c4ccc(C(C)(C)C)cc4)c(C)n3n2)cc1,–,inactive
Cc1ccc2c(C(=O)CCl)c(C)[nH]c2c1,"inconclusive: 35.5 µM [falling, single point]",–
Nc1nn2cc(-c3ccc(Br)cc3)nc2c2ccccc12,"inconclusive: 10 µM [falling, partial curve]",–
COc1cnc(-c2ccccn2)nc1Oc1ccccc1Cl,–,inactive
CCC1=[N+](C)CCn2c(C)ccc21,–,inactive
CCc1ccccc1NC(=O)c1noc(C(C)C)c1[N+](=O)[O-],"inconclusive: 35.5 µM [falling, single point]",–
COC(=O)c1cccc(NC(=O)C2COc3ccccc3O2)c1 (stereo not drawn),"inconclusive: 0.731 µM [rising, full curve, poor fit]",–
CCc1ccccc1NC(=S)/N=C(\N)Nc1nc(C)c2cc(C)ccc2n1,"inconclusive: 16.4 µM [falling, partial curve]",–
CC(=O)c1cn(CCOc2ccccc2C)c2ccccc12,–,inconclusive: -2.01%
O=C(CSc1nc(-c2ccco2)cc(C(F)(F)F)n1)N1CCSCC1,"inconclusive: 18.4 µM [rising, partial curve, poor fit]",–
Cc1cc(C)cc(NC(=S)Nc2ccccn2)c1,–,inconclusive: 4.17%
CCOC(=O)c1c(C)[nH]c(N=Nc2ccc(OC)cc2)c1C,–,inconclusive: -6%
COc1cccc(/C=C/C(=O)OCC(=O)N2CCN(c3ccccc3)CC2)c1,–,inconclusive: 8.79%
CC(C)CNC(=S)N1CCN(c2nc3ccccc3s2)CC1,–,inconclusive: 13.2%
NNC(=S)NCc1cccnc1,"inconclusive: 20.6 µM [falling, single point]",–
CCOc1ncccc1C(=O)Nc1ccc2c(C)cc(=O)oc2c1,–,inconclusive: 0.742%
CC1=NN(c2ccccc2)C(=O)/C1=C/c1cn(C)c2ccccc12,–,inconclusive: 5.18%
O=C(N/N=C/c1cccc2ccccc12)c1cc2ccccc2o1,"inconclusive: 22.4 µM [falling, single point]",–
